Data set [1] is described as follows: Concentrations of macro- and micro-elements in cheese (ICP-OES). Details: species or system goat. Particulars: 20 mg of Ca.
For data set [2] the following is noted: cited from earlier work.

Take `CC(O)C(=O)[O-].CC(O)C(=O)[O-].[Ca+2]` (stereo not drawn) [Lactate, calcium lactate]: the “increase in phosphorus content of cheese” value in data set [1] was 4.5 mg per 100 g. As to `NCC(=O)[O-].NCC(=O)[O-].[Ca+2]` [bisglycinate], the “increase in calcium content of cheese compared to the control” value in data set [2] (40 mg Ca 100 g^−1 of milk) was 99.24 mg.

`O=C([O-])CC(O)(CC(=O)[O-])C(=O)[O-].O=C([O-])CC(O)(CC(=O)[O-])C(=O)[O-].[Ca+2].[Ca+2].[Ca+2]` [calcium citrate]: the “increase in calcium content of acid rennet cheese compared to the control sample” value in data set [2] (20 mg Ca 100 g^−1 of milk) was 26.62 mg.

The values above are taken from article PMC10572428, “Possibility of Using Different Calcium Compounds for the Manufacture of Fresh Acid Rennet Cheese from Goat’s Milk” (Foods, 2023).
